No constants are given. Whether binding was seen depends on the method and setting. Binding seen in cells or lysates may run through a third protein. Here binding means that the protein was enriched with, or labelled near, the bait; the list need not be complete. For some assays here: Where a sequence is shown, tags or fusion partners need not be part of it.
Tests used:
[1] = target: BirA-UBXD9 (D. discoideum) (UniProt Q54X06); assay: proximity labelling; BioID: AX2/BirA-UBXD9 cells with 50 uM biotin for 16 h against AX2, streptavidin sepharose beads, mass spectrometry; four replicates, fold change > 1.4 and p < 0.05
[2] = target: GFP-UBXD9 (N-terminally tagged UBXD9) (D. discoideum); assay: affinity purification with mass spectrometry; GFP-trap beads, soluble proteins of AX2 cells expressing UBXD9-GFP or GFP-UBXD9 against AX2/GFP; four replicates, fold change > 1.4 and p < 0.05
[3] = target: UBXD9-GFP (C-terminally tagged UBXD9) (D. discoideum) (UniProt Q54X06); assay: as above

The chains behind the UniProt entries cited, without tags or fusion partners. Where a name states a change or a piece, a line headed by the entry shows the natural chain unless it says otherwise.
UniProt Q54X06: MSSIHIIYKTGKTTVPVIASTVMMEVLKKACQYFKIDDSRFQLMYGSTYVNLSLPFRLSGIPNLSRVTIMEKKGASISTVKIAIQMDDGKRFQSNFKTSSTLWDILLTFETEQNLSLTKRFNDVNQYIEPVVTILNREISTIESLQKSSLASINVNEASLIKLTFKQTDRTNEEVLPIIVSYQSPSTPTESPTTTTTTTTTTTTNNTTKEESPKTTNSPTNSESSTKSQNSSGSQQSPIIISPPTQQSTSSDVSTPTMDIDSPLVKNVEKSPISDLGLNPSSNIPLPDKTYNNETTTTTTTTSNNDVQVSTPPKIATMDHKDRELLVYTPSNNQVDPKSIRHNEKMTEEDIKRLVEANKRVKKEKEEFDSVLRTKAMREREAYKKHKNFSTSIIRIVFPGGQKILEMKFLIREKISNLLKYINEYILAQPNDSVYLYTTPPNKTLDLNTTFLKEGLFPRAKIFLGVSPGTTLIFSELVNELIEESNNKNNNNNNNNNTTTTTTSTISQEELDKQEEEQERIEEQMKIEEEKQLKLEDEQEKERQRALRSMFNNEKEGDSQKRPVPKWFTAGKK

binding [1]	binding [2]	binding [3]	Binder
binds	binds		Hisactophilin-2 (protein, UniProt P42526 1-118) MGNRAFKAHNGHYLSAEHDHVKTHHGHHDHHTHFHIENHGSKVALRTHCGKYVSIGDHKQVYLSHHLHGDHSLFHLEHHHGKVSIKGHHHHYISVDGHGHVSTSHHHDHHATFEEHIL
binds	binds	binds	Putative glutamine synthetase type III (enzyme, UniProt Q54WR9 1-735) MSNRRREFIEYIDSREPVEADIDISDKADRLTDIYDSDTYGLNAMRETLPSHCYKKIREVMQTGSALDPEIADMVANGMKEWAIKQGATHYCHWFLPLNGLAAEKHDSFISIFPGDDKVLLEFSGMQLIKGEPDASSFPSGGIRSTWEARGYTVWDATSPAFIRREKNGAILCIPTAFCSWTGEALDQKTPLLRSMEYVSNESIITLSSLFNEKHKRISPTLGIEQEFFLIDRKFYLARPDLVNCGRTLIGAKPPKGQEMEDHYFGTMNSRIISCIQEVEWKMWRLGMPLKTRHNEVAPGQYEVAPIFERANIAADHNMMLMDILKNVSTKHGLVCLFHEKPFAGVNGSGKHNNWSLSTDGGSNLLEPGHTPSQNARFILFLTAIIRAVDIHADLLRASVAVPGNEHRLGANEAPPAIISIYLGKELDTVINNIINNTDIQAPGSDDMDLGVVGFPPLPKDSTDRNRTSPFAFTGNKFEFRAVGSSQVVNFPCIVLNTIVAESLRFIREEILREMKVSSRQTAFNKIIKDTLIQHVRVVFNGDGYSGDWKELAKSRGLANLPSTPEALTNINSEKNIKLFSESNILSPVELESRQEILFEIYNKSIKIEANSLYDLVSTLVLPACFAHQKNIAESVNSIMPFIQSQKSFSQPNHQYSHLSEVVESVNLLIEANQKLLALIKQTKDFNSEHSLATFLNQSVIPQMNEVRKFSDHLEGIVEDKSWPVPKYSEILFLR

Reference: article PMC8495200
